Reference: patent US20250129334A1, “LINEAGE SPECIFICATION DURING STEM CELL TRANSITION” (Amniotics AB, priority 2021, published 2025)
For at least one compound, name, drawing or mass did not settle the structure.

System: EHT cells
Test: EHT cell subculture with metabolic regulators, flow cytometry
Format: cell-based, human
Details: day 6; deriving from EHT cells; DCA 3 mM
From the text: The RB9-CB1 human iPSC line (Woods, N.-B. et al. Brief report: efficient generation of hematopoietic precursors and progenitors from human pluripotent stem cell lines. Stem Cells 29, 1158-1164 (2011)) was co-cultured with mouse embryonic fibroblasts (MEFs, Millipore), passaged every six days and processed to form embryoid bodies (EBs) as described previously (Guibentif, C. et al. Single-Cell Analysis Identifies Distinct Stages of Human Endothelial to-Hematopoietic Transition. Cell Reports 19, 10-19 (2017)). The differentiation protocol used in this study was previously described (Ditadi, A. & Sturgeon, C. M. Directed differentiation of definitive hemogenic endothelium and hematopoietic progenitors from human pluripotent stem cells. Methods 101, 65-72 (2016)), however, small modifications were made to induce both primitive and definitive hematopoiesis, as indicated below and in FIG. 6, a. Newly-formed EBs were first kept in SFD medium supplemented with 1 ng/ml Activin A (on days 0-2) and 3 μM CHIR99021 (on day 2 only). At day 3, media was switched to “Day 3-SP34” medium supplemented with 1 ng/ml Activin A (on day 3 only) and 3 μM CHIR99021 (on day 3 only) until day 6. On day 6, media was replaced by “Day 6-SP34” medium, until day 8. […]

**Q.** How did the “increase in CD43+CD45+ cells” value turn out when `O=C(O)C(Cl)Cl` [DCA, dichloroacetate] was run?
**A.** The value was “but not EHT cells”.
